The IC50 is the midpoint of a concentration-inhibition curve.

What all share (experiment): Cell proliferation
Assay type in all cases: cell-based

The test system of assay [1] is Mia PaCa-2. The note with it: Homo sapiens, MIA PaCa-2, read-out: Mean IC50 ± SEM.
The test system of assay [2] is cHCI-10. The following applies: Homo sapiens, 120 h, read-out: Mean IC50 ± SEM.
For assay [3], the system named is MDA-MB-231. The note with it: Homo sapiens, MDA-MB-231, read-out: Mean IC50 ± SEM.
Assay [4] deals with MDA-MB-468. The note with it: Homo sapiens, MDA-MB-468, read-out: Mean IC50 ± SEM.
The test system of assay [5] is MDA-MB-231/TxR. The note with it: Homo sapiens, read-out: Mean IC50 ± SEM.
In assay [6] the test system is cHCI-2. The note with it: Homo sapiens, 120 h, read-out: Mean IC50 ± SEM.
The subject of assay [7] is MDA-MB-468/TxR. The note with it: Homo sapiens, MDA-MB-468, read-out: Mean IC50 ± SEM.

Regarding `COc1cc2c(c(OC)c1OC)-c1ccc(OC)c(=O)cc1[C@@H](NC(C)=O)CC2` [Colchicine], the IC50 was found to be 20.3 ± 2.3 nM in assay [1]; 23.4 ± 8.4 nM in assay [2]; 23.7 ± 3.1 nM in assay [3]; 7.9 ± 1.4 nM in assay [4]; 36.8 ± 6.4 nM in assay [5]; 16.6 ± 6.9 nM in assay [6]. Moreover, the IC50 in assay [7] came out at 41.9 ± 5.7 nM.

(Values after article PMC9256790 (Molecular cancer therapeutics, 2022).)
